Our source for the binding values is patent US20220249538A1, “TREATMENT AGENT FOR SEX HORMONE-INSENSITIVE GREB1-POSITIVE TUMORS” (OSAKA UNIVERSITY, priority 2019, published 2022).

Amino acid sequences for entries named in this document (tags omitted). A change or cut given only in a name is not applied to a line headed by its entry. Chains listed by the source or under a name are the forms on record and can include a tag or linker.
HA-FLAG-GREB1 (Q3UHK3, form named): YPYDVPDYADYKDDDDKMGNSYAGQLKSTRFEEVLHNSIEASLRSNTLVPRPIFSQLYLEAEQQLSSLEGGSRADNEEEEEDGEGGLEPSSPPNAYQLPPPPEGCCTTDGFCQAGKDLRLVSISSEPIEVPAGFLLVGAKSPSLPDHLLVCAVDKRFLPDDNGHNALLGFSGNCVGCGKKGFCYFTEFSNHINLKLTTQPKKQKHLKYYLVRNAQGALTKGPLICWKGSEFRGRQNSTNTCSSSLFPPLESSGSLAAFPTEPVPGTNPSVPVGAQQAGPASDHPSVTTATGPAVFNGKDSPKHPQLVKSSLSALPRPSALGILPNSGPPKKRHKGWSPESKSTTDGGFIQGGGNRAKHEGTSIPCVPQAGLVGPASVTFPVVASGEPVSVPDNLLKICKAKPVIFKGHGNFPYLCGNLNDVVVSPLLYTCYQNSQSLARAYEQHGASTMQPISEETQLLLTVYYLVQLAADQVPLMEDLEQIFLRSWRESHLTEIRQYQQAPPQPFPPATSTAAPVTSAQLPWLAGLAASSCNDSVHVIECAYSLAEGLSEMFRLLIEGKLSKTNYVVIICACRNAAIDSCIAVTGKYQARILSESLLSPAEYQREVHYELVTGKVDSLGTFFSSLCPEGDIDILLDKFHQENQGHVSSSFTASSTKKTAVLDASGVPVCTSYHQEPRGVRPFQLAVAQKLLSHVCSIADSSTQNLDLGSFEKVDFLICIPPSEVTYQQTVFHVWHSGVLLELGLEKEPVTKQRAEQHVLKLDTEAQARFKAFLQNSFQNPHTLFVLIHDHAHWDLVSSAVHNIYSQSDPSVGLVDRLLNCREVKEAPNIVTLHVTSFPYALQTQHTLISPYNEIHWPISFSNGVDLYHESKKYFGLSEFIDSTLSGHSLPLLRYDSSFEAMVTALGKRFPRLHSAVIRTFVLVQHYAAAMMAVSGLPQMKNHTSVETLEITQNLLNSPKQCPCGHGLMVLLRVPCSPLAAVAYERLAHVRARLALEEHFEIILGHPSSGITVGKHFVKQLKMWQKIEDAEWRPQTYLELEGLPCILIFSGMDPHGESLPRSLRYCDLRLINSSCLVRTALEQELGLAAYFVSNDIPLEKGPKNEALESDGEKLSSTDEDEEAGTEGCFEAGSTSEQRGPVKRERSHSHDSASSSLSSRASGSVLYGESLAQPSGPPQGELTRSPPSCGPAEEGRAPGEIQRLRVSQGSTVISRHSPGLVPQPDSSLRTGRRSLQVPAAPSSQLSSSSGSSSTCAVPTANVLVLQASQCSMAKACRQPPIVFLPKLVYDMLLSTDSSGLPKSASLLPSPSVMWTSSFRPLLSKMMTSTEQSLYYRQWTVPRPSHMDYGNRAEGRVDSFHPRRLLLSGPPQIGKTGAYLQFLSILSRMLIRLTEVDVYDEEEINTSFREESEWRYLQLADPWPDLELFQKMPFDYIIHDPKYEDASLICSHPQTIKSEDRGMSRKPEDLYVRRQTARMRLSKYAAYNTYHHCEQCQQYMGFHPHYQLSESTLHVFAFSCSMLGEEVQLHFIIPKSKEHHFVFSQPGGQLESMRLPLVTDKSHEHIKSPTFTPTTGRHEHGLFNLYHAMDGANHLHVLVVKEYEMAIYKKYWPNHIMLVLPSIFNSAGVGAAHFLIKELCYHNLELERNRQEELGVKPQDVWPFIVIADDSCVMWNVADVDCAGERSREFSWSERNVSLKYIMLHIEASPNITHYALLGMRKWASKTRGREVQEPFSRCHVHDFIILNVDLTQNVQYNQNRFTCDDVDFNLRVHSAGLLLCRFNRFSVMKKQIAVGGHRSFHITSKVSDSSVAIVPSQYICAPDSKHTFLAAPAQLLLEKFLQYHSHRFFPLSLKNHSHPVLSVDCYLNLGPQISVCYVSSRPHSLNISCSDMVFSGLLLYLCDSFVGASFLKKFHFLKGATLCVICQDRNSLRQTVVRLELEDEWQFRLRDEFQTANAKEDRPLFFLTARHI

Results are given in words; binding and its absence hold for the method and conditions named. In cells and extracts the contact can be indirect. Some entries that bind do so weakly or less than the wild type.

The target in one assay is GFP-Smad7 (human). Kind of assay: co-immunoprecipitation with anti-GFP antibody, X293T lysates, anti-HA blot.
The next assay addresses GFP-Smad3 (human). The description is as above.

Turning to “HA-FLAG-GREB1 (from UniProt Q3UHK3 1-1954)”, the binding result with GFP-Smad7 (human) and with GFP-Smad3 (human) was “binds” in each case.
